Laboratory results as given in US20230340044A1.
These are yes or no findings as the source states them, for the method shown. Some entries that bind do so weakly or less than the wild type.

The chains behind the UniProt entries cited, without tags or fusion partners. Where a name states a change or a piece, a line headed by the entry shows the natural chain unless it says otherwise. Residues count along the entry.
UniProt Q9ULT6, residues 56-219: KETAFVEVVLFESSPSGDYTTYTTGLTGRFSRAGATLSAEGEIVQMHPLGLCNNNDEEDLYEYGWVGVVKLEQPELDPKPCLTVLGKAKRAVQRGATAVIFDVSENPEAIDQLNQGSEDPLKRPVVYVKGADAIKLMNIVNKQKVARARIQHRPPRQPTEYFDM
UniProt Q2MKA7: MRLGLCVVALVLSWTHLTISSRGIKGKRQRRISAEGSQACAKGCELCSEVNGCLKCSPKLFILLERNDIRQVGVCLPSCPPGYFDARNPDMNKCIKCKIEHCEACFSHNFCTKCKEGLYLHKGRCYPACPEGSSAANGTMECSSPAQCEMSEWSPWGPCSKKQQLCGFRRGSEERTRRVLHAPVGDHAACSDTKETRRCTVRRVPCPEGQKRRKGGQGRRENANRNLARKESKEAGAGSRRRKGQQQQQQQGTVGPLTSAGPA

Assays:
[1] = molecular target: ZNRF3-Fc (#7994-RF, R&D Biosystems) (UniProt Q9ULT6); assay: ELISA, Rspo protein coated, ZNRF3-Fc in solution
[2] = molecular target: ZNRF3-Fc (#7994-RF, R&D Biosystems) (UniProt Q9ULT6); assay: ELISA, Rspo protein coated, ZNRF3-Fc in solution; reference for the comparison

Row | binding [1] | binding [2] | Substance
1 | binds | – | Variant #009 (hRspo1 with deletion of residues 21-31; hRspo1 32-263) (from UniProt Q2MKA7 32-263) (ligand)
2 | binds | – | Variant #047 (hRspo1 32-263 with 4 additional amino acid substitutions E49K, V50D, D68G, D85G) (from UniProt Q2MKA7 32-263) (ligand)
3 | binds | – | Variant #051 (hRspo1 32-263 with 9 additional amino acid substitutions E45L, E49K, V50D, K55R, D68G, D85G, N88A, H108K, N109D) (from UniProt Q2MKA7 32-263) (ligand)
4 | – | binds | control Rspo1 (without mutation); original native Rspo1 (from UniProt Q2MKA7 21-263) (ligand)
